Consider eight molecules from article PMC7761126.

Results are given in words; binding and its absence hold for the method and conditions named. Binding seen in cells or lysates may run through a third protein. Here binding means that the protein was enriched with, or labelled near, the bait; the list need not be complete.

For this test, the target named is Death-associated protein kinase 1 (rat (endogenous in primary cortical neurons and brain)). The test is described as follows: affinity purification with mass spectrometry; rabbit anti-DAPK1 antibody covalently attached to Dynabeads, incubated with 50 mg protein extracts of rat cortical neurons (control or OGD, 30 min after OGD); eluted in TCA, trypsin digest, LC-MS/MS (LTQ-Orbitrap XL); non-specific antibody as negative control.

B1: GAIP interacting protein at C terminus (protein, UniProt Q9Z254 1-333)
chain: MPLGLGRRKKAPPLVENEEAEPSRSGLGVGEPGPLGGSGAGESQMGLPPPPASLRPRLVFHTQLAHGSPTGRIEGFTNVKELYGKIAEAFRLPAAEVMFCTLNTHKVDMDKLLGGQIGLEDFIFAHVKGQRKEVEVFKSEDALGLTITDNGAGYAFIKRIKEGSVIDHIQLISVGDMIEAINGQSLLGCRHYEVARLLKELPRGRTFTLKLTEPRKAFDMISQRSSGGHPGSGPQLGTGRGTLRLRSRGPATVEDLPSAFEEKAIEKVDDLLESYMGIRDTELAATMVELGKDKRNPDELAEALDERLGDFAFPDEFVFDVWGAIGDAKVGRY
As for B1, the binding entry is reported as “binds”.

B2: PRDX2 (enzyme, UniProt P35704 1-198)
chain: MASGNAHIGKPAPDFTGTAVVDGAFKEIKLSDYRGKYVVLFFYPLDFTFVCPTEIIAFSDHAEDFRKLGCEVLGVSVDSQFTHLAWINTPRKEGGLGPLNIPLLADVTKSLSQNYGVLKNDEGIAYRGLFIIDAKGVLRQITVNDLPVGRSVDEALRLVQAFQYTDEHGEVCPAGWKPGSDTIKPNVDDSKEYFSKHN
As for B2, the binding result is recorded as “binds”.

B3: peroxiredoxin (PRDX) 1 (enzyme, UniProt Q63716 1-199)
chain: MSSGNAKIGHPAPSFKATAVMPDGQFKDISLSDYKGKYVVFFFYPLDFTFVCPTEIIAFSDRAEEFKKLNCQVIGASVDSHFCHLAWINTPKKQGGLGPMNIPLVSDPKRTIAQDYGVLKADEGISFRGLFIIDDKGILRQITINDLPVGRSVDEILRLVQAFQFTDKHGEVCPAGWKPGSDTIKPDVNKSKEYFSKQK
With B3, the binding entry was “binds”.

B4: PRDX3 (enzyme, UniProt Q9Z0V6 63-257)
chain: TPAVTQHAPHFKGTAVVNGEFKELSLDDFKGKYLVLFFYPLDFTFVCPTEIVAFSDKANEFHDVNCEVVAVSVDSHFSHLAWINTPRKNGGLGHMNITLLSDLTKQISRDYGVLLESAGIALRGLFIIDPNGVIKHLSVNDLPVGRSVEEPLRLVKAFQFVETHGEVCPANWTPESPTIKPSPTASKEYFEKVHQ
With B4, the binding result is given as “binds”.

B5: LRRFIP2 (protein, UniProt Q4V7E8 1-437)
chain: MGTPGSGRKRTPVKDRFSAEDEALSNIAREAEARLAAKRAARAEARDIRMRELERQQRESSSKDITGTHWSRASTPKRRDMMYDSIKDRSSRVSSLLDEKSDKQYAENYTRPSSRNSASATTPLSGNSSRRGSGDTSSLIDPDTSLSELRESLSEVEEKYKKAMVSNAQLDNEKNNLIYQVDTLKDVIEEQEEQMAEFYRENEEKSKELERQKHMCSVLQHKMDELKEGLRQRDELIEKHGLVIIPESTPNGDVNHEPVVGAITAVSQEAAQVLESAGEGPLDVRLRKLAEEKDELLSQIRKLKLQLEEERQKCSRNDGMSGDLAGLQNGSDLQFIEMQRDANRQISEYKFKLSKAEQDIATLEQSISRLEGQVLRYKTAAENAEKIEDELKAEKRKLQRELRTAQDKIEEMEMTNSHLAKRLEKMKANRTALLAQQ
As to B5, the binding entry is reported as “binds”.

B6: caytaxin (protein, UniProt Q1M168 1-372)
chain: MGTTEATLRMENVDVRDEWQDEDLPRPLPEDTGEDHLGGTVEDSSSPPSTLNLSGAHRKRKTLVAPEINISLDQSEGSLLSDDFLDTPDDLDINVDDIETPDETDSLEFLGNGNELEWEDDTPVATAKNMPGDSADLFGDGSGEDGSAANGRLWRTVIIGEQEHRIDLHMIRPYMKVVTHGGYYGEGLNAIIVFAACFLPDSSSPDYHYIMENLFLYVISSLELLVAEDYMIVYLNGATPRRRMPGIGWLKKCYHMIDRRLRKNLKSLIIVHPSWFIRTVLAISRPFISVKFISKIQYVHSLEELEQLIPMEHVQLPACVLQYEEQRLRAKRESARPPQPEFLLPRSEEKPETVEEEDRAAEVTEDQETSMS
In the case of B6, the binding result is “binds”.

B7: leucine-rich repeat in flightless 1 interaction protein 1 (protein, UniProt Q66HF9 1-738)
chain: MTSPEGAQNKEIDCLSPEAQRLAEARLAAKRAARAEAREIRMKELERQQKEVEERPDKDFAEKGSRNMPSLSAATLASLGGTSSRRGSGDTSISMDTEASIREIKDSLAEVEEKYKKAMVSNAQLDNEKTNFMYQVDTLKDMLLELEEQLAESQRQYEEKNKEFEREKHAHSILQFQFAEVKEALRQREEMLEKHGIILNSEIATNGETSDTVNDVGYQAPTKITKEELNALKAAGEGTLGKAKEVEVKKEIVEKVGQRETLQDSEQEQPKLNTGKDCVDRGVLHPGEKAENQRPVEDSALSPGPLAGAKCEQEVQSQDQENTSILKSPEQIESHEVTNKSDSRDSNSPEPSSCRGGLDSEVSGPTALGIKNQSENSMDSQGKENQEDLGKGSFEPRPDHVLGQTPEIDKVSCTDSRGTGGNHLEDVVQAGDTIVEDQVGTMASAEQSKSMENHIGRSLNDGLGQSSERELAHEAAELEEALTQSSQAGGENTVTEAEDAAVRDEKPLQADVQATPAAPTVQSGHQDTTGPGSTDTKHTSPHAKERNKAKSEQQAEALDSPQKKTKNKKKKNKKKKAAAPMETCKDANEESSCQDPDVGDGEEEERVQATDKKWAAETPELKEDPQSRPSGKQNDAEEDSGPAEGPTDVLDQNSLQCADGDISPVGRKGPQRDASQIGGEEGLVPSQHPGQADEKGIEGHSVDNSDLSGELGGFNSESGEQAREEVGNSKSKEDCTMS
In the case of B7, the binding result was “binds”.

B8: flightless I homologue (protein, UniProt Q5RKI5 1-1270)
chain: MEATGVLPFVRGVDLSGNDFKGGYFPENVKAMTSLRWLKLNRTGLCYLPEELAALQKLEHLSVSHNNLTTLHGELSSLPSLRAIVARANSLKNSGVPDDIFKLDDLSVLDLSHNQLTECPRELENAKNMLVLNLSHNSIDSIPNQLFINLTDLLYLDLSENRLESLPPQMRRLVHLQTLVLNGNPLLHAQLRQLPAMMALQTLHLRNTQRTQSNLPTSLEGLSNLSDVDLSCNDLTRVPECLYTLPNLHRLNLSSNQIAELSLCIDQWVHLETLNLSRNQLTSLPSAICKLTKLKKLYLNSNKLDFDGLPSGIGKLTSLEEFMAANNNLELIPESLCRCPKLRKLVLNKNRLVTLPEAIHFLTEIEVLDVRENPSLVMPPKPADHTAEWYNIDFSLQNQLRLAGASPATVAAAAAVGSGSKDPLARKMRLRRRKDSAQDVQAKQVLKGMSDVAQEKNKNQEESTDARAPGGKVRRWDQGLEKPRLDYSEFFTEDVGQLPGLTIWQIENFVPVLVEEAFHGKFYEADCYIVLKTFLDDSGSLNWEIYYWIGGEATLDKKACSAIHAVNLRNYLGAECRTAREEMGDESEGFLQVFDNDISYIEGGTASGFYTVEDTHYVTRMYRVYGKKNIKLEPVPLKGTSLDPRFVFLLDQGLDIYVWRGAQATLSNTTKARLFAEKMNKNERKGKAEITLLVQGQEPPEFWDVLGGEPSEIKKHVPDDFWPPQPKLYKVGLGLGYLELPQINYKLSVEHKKRPKVELMPGMRLLQSLLDTRCVYILDCWSDVFIWLGRKSPRLVRAAALKLGQELCGMLHRPRHTVVSRSLEGTEAQVFKAKFKNWDDVLTVDYTRNAEAVLQGPGISGKVKRDTEKKDQMKADLTALFLPRQPPMPLAEAEQLMEEWNEDLDGMEGFVLEGRKFTRLAEEEFGHFYTQDCYVFLCRYWVPVEYEEEEKPEDKEGKASAEGREEEEAAAETEEKQPEEDFQCIVYFWQGREASNMGWLTFTFSLQKKFESLFPGKLEVVRMTQQQENPKFLSHFKRKFIIHRGKRKVTQTLQPTLYQIRTNGSALCTRCIQINTDSSLLNSEFCFILKVPFESEDNQGIVYAWVGRASDPDEAKLAEDILNTMFDPSYSKQVINEGEEPENFFWVGIGAQKPYDDDAEYMKHTRLFRCSNEKGYFAVTEKCSDFCQDDLADDDIMLLDNGQEVYMWVGTQTSQVEIKLSLKACQVYIQHTRSKEHERPRRLRLVRKGNEQRAFTRCFHAWSTFRQAPA
With B8, the binding result is “binds”.
